No constants are given. Whether binding was seen depends on the method and setting. Some results given as binding are weak or reduced against the parent protein; the word gives no strength.
What was measured:
[1] = target: cynomolgus monkey CD47 expressed on CHO cells (cynomolgus monkey); test: summary of in vitro characterization
[2] = target: cynomolgus monkey CD47 expressed on CHO cells (cynomolgus monkey); test: flow cytometry, CD47-transfected CHO cells
[3] = target: mouse CD47 (mCD47) expressed on CHO cells (mouse) (UniProt Q61735); test: summary of in vitro characterization
[4] = target: mouse CD47 (mCD47) expressed on CHO cells (mouse) (UniProt Q61735); test: flow cytometry, CD47-transfected CHO cells

By UniProt entry, the sequences of proteins in these tests, tags left out. Residues count along the entry.
UniProt Q61735, residues 19-303: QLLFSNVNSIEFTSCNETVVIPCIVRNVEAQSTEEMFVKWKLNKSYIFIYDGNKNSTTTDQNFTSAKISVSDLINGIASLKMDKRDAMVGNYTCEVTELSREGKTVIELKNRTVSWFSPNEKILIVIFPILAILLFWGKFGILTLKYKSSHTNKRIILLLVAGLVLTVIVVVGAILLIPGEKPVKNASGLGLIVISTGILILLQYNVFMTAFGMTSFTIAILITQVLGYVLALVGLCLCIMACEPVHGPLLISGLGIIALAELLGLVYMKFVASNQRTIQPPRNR

binding [1]	binding [2]	binding [3]	binding [4]	Binder
binds	binds	–	–	Candidate 22 (VL008-AL13-8G5-8K3), mouse IgG (antibody, V domains shown) VH: QVQLQQPGAELVKPGASVKLSCKASGYTFTTYWMHWVKQRPGQGLEWIGMIHPNSGTTNYNEKFKSKATLTVDKSSSSTYMQLSSLTSEDSAVYYCTRSHYYDGHFSYWGQGTLVTVSA VL: DIVMSQSPSSLAVSAGEKVTMSCKSSQSLLNSRTRKNYLAWYQQKPGQSPKLLIYWASTRESGVPDRFTGSGSGTDFTLTISSVQAEDLAVYYCKQSYNLWTFGGGTRLEIK
binds	binds	–	–	Candidate 7 (VT008-AL5-10G7-10K7), mouse IgG (antibody, V domains shown) VH: QVQLQQPGAELVMPGSSVKLSCKTSGYTFTKYWMHWVKRRPGQGLEWIGEINPSDTYTNYNQKFKGKSTLTVDKSSSTAYMQLSSLTSEDSAVYFCARVATMVARGFAYWGQGTLVTVSA VL: DIVMTQSHKFMSTSVGDRVSITCKASQDVSGAVVWYQEKPGQSPNLLIYLATYRYTGVPDRFTGSGSGTDFTLTIRSVQAEDMAVYYCQQYYSIPWTFGGGTKLEIK
binds	binds	binds	binds	Candidate 15 (VT008-AL6-18G1-18K21), mouse IgG (antibody, V domains shown) VH: QVQLQQPGAELVKPGTSVKLSCKASGYTFINYWIHWVKQRPGRGLEWIGRIDPNTVDAKYNEKFKSKATLTVDKPSSIAYMQLSSLTSEDSAVYYCSRGGYTMDYWGQGTSVTVSS VL: DVVMTQTPLSLPVSLGDQASISCRSSQSLVHSNGNTYLHWYLQKPGQSPTLLIYKVSNRFSGVPDRFSGSGSGTDFTLKISRVEAEDLGIYFCFQSTHVPWTFGGGTKLEIK
–	binds	–	binds	Candidate 29 (VT008-AL6-20G7-20K7), mouse IgG (antibody, V domains shown) VH: QVQLQQSGTELAKPGASVKLSCKASGYTFINYWIYWVKERPGQVLEWIGYINPRSDDTKYNQKFRDRATLTADKSSTTAYLQLNSLTNDDSALYYCARGGFTMDFWGQGTSVTVSS VL: DVVMTQTPLSLPVSLGDQASISCRSSQSLLHSNGNTYLHWYLQKPGQSPNLLIYKVSYRFSGVPDRFSGSGSGTDFTLKISRVEAEDLGVYFCSQGTHVPYTFGGGTKLEIK
binds	binds	binds	binds	Candidate 26 (VT008-AL6-10G3-10K1), mouse IgG (antibody, V domains shown) VH: QVQLQQPGPELVKPGASVKLSCKASGYTFTNYWIHWLNQRPGRGLEWIGRIDPNSGGTKYNEKFKSKAILTVDKSSSTTYMQLSSLTSEDSAVYYCARGGYTMDYWGQGTSVTVSS VL: DVVMPQTPLSLPVSLGDHASISCRSSQSLLHSNGNTYLHWYLQKPGQSPKLLIYKVSYRFSGVPDRISGSGSGTDFTLKISRVEAEDLGVYFCFQSTHVPWTFGGGTKLEIK

— patent US20220356245A1
